Here are results for 22 molecules from PubChem BioAssay AID278 (DTP/NCI, 2004).

The list is a part of this screen's results and no random one: it gathers tests that were run many times, whatever their T/C, doses with no T/C, and many T/C values between a quarter and a half above the control. Other doses and runs of a compound stand elsewhere. T/C: endpoint of the treated group in % of that of the vehicle group. Schedules are NCI's codes, taken here to give the interval after Q, in days (D) or hours (H), and the number of doses after X. Some T/C values carry the count of animals alive at the toxicity check (mostly the fifth day); without a count, all were alive then. Some doses have a count of surviving animals in place of a T/C: the source holds a T/C of zero for them, seemingly a mark for toxic or unscored doses. Survivors were counted at the toxicity check, usually on the fifth day, unless a day is given; later deaths do not show. Some doses were run more than once; the results are listed from low to high.

This experiment relates to nude mice, A549 intrarenal xenograft, tumor weight change. Kind of experiment: NCI In Vivo Anticancer Drug Screen. Data for tumor model A549 Human Adenocarcinoma of Lung with characteristics of Type II Alveolar Epithelial cells (intrarenal inoculation) in NU/NU BALB/C (nude) mice. Particulars: T/C endpoint: mean tumor weight change, higher T/C = larger tumour; for T/C: evaluated on day 12. Here is the method: The antitumor activity of compounds was measured in mice bearing transplantable tumors. Survival or tumor size were measured and the results are expressed as the measurement made in the treated group (T) divided by the measurement made in the vehicle treated control group (C). The tumor model used in this assay is A549 Human Adenocarcinoma of Lung with characteristics of Type II Alveolar Epithelial cells (intrarenal inoculation) in NU/NU BALB/C (nude) mice

The mark [1] stands for this setting: dose: 100.0 mg/kg/injection, schedule: Q04DX003 (ip), vehicle: water.
[2] abbreviates: dose: 300.0 mg/kg/injection, schedule: Q04DX003 (ip), vehicle: saline with Tween-80.
[3] abbreviates: dose: 600.0 mg/kg/injection, schedule: Q04DX003 (ip), vehicle: saline with Tween-80.
The mark [4] stands for this setting: dose: 100.0 mg/kg/injection, schedule: Q04DX003 (ip), vehicle: saline with Tween-80.
[5] abbreviates: dose: 75.0 mg/kg/injection, schedule: Q04DX003 (ip), vehicle: saline with Tween-80.

Consider `CCCCOCN(COCCCC)C12CC3CC(CC(C3)C1)C2`, for which the T/C was 142 % of control [5 of 6 alive on day 12] (dose: 200.0 mg/kg/injection, schedule: Q04DX003 (ip), vehicle: saline with Tween-80) and 130 % of control [4 of 6 alive on day 12] (dose: 800.0 mg/kg/injection, schedule: Q04DX003 (ip), vehicle: saline with Tween-80).
Regarding `O=C(O)c1cc(C(=O)O)c(C(=O)O)cc1C(=O)O.[NH2-].[NH2-].[NH2-].[NH2-].[Pt+2].[Pt+2]`, the T/C (dose: 25.0 mg/kg/injection, schedule: Q04DX003 (ip), vehicle: water) is 128 % of control and the T/C under setting [1] was 144 % of control [5 of 6 alive on day 12]. The survivor count (dose: 50.0 mg/kg/injection, schedule: Q04DX003 (ip), vehicle: water) is given as 3 of 6 on day 12.
Consider `CO[C@H](/C(C)=C/C=C/C(C)=C/c1coc(C)n1)[C@H](C)[C@H]1C[C@@H](O)[C@@]2(C)O[C@H]2/C=C/[C@@H](C)[C@@H]2C[C@@H](CC(=O)O2)C[C@H]2O[C@@H]2C(=O)O1`, for which the survivor count by setting is: (dose: 0.2 mg/kg/injection, schedule: Q01DX009 (ip), vehicle: other) 3 of 6 on day 12; (dose: 0.3 mg/kg/injection, schedule: Q01DX009 (ip), vehicle: other) 0 of 6 on day 12 and 2 of 6 on day 12; (dose: 0.44 mg/kg/injection, schedule: Q01DX009 (ip), vehicle: Klucel (hydroxypropylcellulose) (HPC)) 0 of 10 on day 12; (dose: 0.44 mg/kg/injection, schedule: Q01DX009 (ip), vehicle: other) 0 of 3 on day 12 and 2 of 6 on day 12; (dose: 0.5 mg/kg/injection, schedule: Q01DX009 (ip), vehicle: other) 0 of 6 on day 12; (dose: 0.66 mg/kg/injection, schedule: Q01DX009 (ip), vehicle: Klucel (hydroxypropylcellulose) (HPC)) 0 of 10 on day 12. Moreover, the survivor count reads like this: (dose: 0.83 mg/kg/injection, schedule: Q01DX009 (ip), vehicle: other) 0 of 6 on day 12; (dose: 1.0 mg/kg/injection, schedule: Q01DX009 (ip), vehicle: Klucel (hydroxypropylcellulose) (HPC)) 0 of 10 on day 12; (dose: 13.0 mg/kg/injection, schedule: Q01DX009 (ip), vehicle: other) 0 of 6 on day 12; (dose: 13.0 mg/kg/injection, schedule: Q01DX009 (ip), vehicle: saline) 0 of 6 on day 12; (dose: 20.0 mg/kg/injection, schedule: Q01DX009 (ip), vehicle: other) 0 of 6 on day 12; (dose: 20.0 mg/kg/injection, schedule: Q01DX009 (ip), vehicle: saline) 0 of 6 on day 12. Further, the survivor count was 0 of 6 on day 12 (dose: 30.0 mg/kg/injection, schedule: Q01DX009 (ip), vehicle: other); 0 of 6 on day 12 (dose: 30.0 mg/kg/injection, schedule: Q01DX009 (ip), vehicle: saline); 0 of 6 on day 12 (dose: 44.0 mg/kg/injection, schedule: Q01DX009 (ip), vehicle: other); 0 of 6 on day 12 (dose: 44.0 mg/kg/injection, schedule: Q01DX009 (ip), vehicle: saline).
With `CCCCNc1ccc2nnc(C)n2n1`, for the setting “dose: 600.0 mg/kg/injection, schedule: Q04DX003 (ip), vehicle: DMSO”, the survivor count was 0 of 6 on day 12.
In the case of `COc1cccc(Sc2ccc([N+](=O)[O-])c3no[n+]([O-])c23)c1`, the survivor count reads like this: under setting [2], 2 of 6 on day 12; under setting [3], 1 of 6 on day 12.
With `CCOc1ccc(-c2nc3ccc(-c4nc5ccc(N6CCN(C)CC6)cc5[nH]4)cc3[nH]2)cc1`, the T/C (dose: 12.5 mg/kg/injection, schedule: Q04DX003 (ip), vehicle: saline) was 139 % of control.
Take `CC(O)C1(O)C(O)CC(OC2c3cc4c(c(O)c3[C@@H]3C[C@@]2(C)OC32C=c3cc[nH]c3=N2)C(=O)c2cccc(O)c2C4=O)OC1C` (some centres undefined): the T/C (dose: 12.5 mg/kg/injection, schedule: Q04DX003 (ip), vehicle: saline with Tween-80) is 145 % of control. For the same molecule, under setting [4], the survivor count is recorded as 0 of 6 on day 12.
Regarding `CCCCCCNc1nc(NCCCCCC)c2[nH]c(NCCCCCC)nc2n1`, the survivor count is, setting by setting: under setting [2], 2 of 6 on day 12; under setting [3], 0 of 6 on day 12.
For the molecule `C=C(CO)C(=O)OC1CC(=C)C2CC(O)C(=C)C2[C@H]2OC(=O)C(=C)C12` (some centres undefined), under “dose: 17.5 mg/kg/injection, schedule: Q04DX003 (ip), vehicle: saline + alcohol”, the survivor count was 1 of 6 on day 12.
`Nc1ncnc2c1nc(Cl)n2C1OC2COP(=O)(O)OC2C1O` (centres undefined): the T/C under setting [1] was 148 % of control [5 of 6 alive on day 12]. Where the note is “dose: 200.0 mg/kg/injection, schedule: Q04DX003 (ip), vehicle: water”, the survivor count is 3 of 5 on day 12.
In the case of `C/C(=N\NC(=S)N1CC2CCC(CC2)C1)c1cccc(C)n1`, the survivor count is recorded as 3 of 6 on day 12 (dose: 50.0 mg/kg/injection, schedule: Q04DX003 (ip), vehicle: saline with Tween-80) and 2 of 6 on day 12 under setting [4].
Regarding `CCC1(O)C(=O)OCc2c1cc1n(c2=O)Cc2cc3cc4c(cc3nc2-1)OCO4` (centres undefined), the survivor count by setting is: (dose: 8.0 mg/kg/injection, schedule: Q04DX003 (ip), vehicle: saline with Tween-80) 0 of 6 on day 12; (dose: 16.0 mg/kg/injection, schedule: Q04DX003 (ip), vehicle: saline with Tween-80) 1 of 6 on day 12; (dose: 32.0 mg/kg/injection, schedule: Q04DX003 (ip), vehicle: saline with Tween-80) 0 of 6 on day 12.
`CCCCN1C(=O)N(c2ccc(OCC)cc2)C2N(CCCC)C1C(C)(C)C2(C)C` (centres undefined): under “dose: 240.0 mg/kg/injection, schedule: Q04DX003 (ip), vehicle: saline with Tween-80”, the survivor count is 3 of 5 on day 12.
Regarding `CCC(=O)[O][Bi]([c]1ccccc1)[c]1ccccc1`, the survivor count (dose: 50.0 mg/kg/injection, schedule: Q04DX003 (ip), vehicle: Klucel (hydroxypropylcellulose) (HPC)) is recorded as 0 of 6 on day 12.
For the molecule `c1ccc([Te][Te]c2ccccc2)cc1`, under setting [5], the T/C is 133 % of control. The survivor count reads like this: under setting [5], 3 of 5 on day 12; (dose: 150.0 mg/kg/injection, schedule: Q04DX003 (ip), vehicle: saline with Tween-80) 0 of 6 on day 12; under setting [2], 0 of 6 on day 12; under setting [3], 0 of 6 on day 12.
For the molecule `CCCCNP1(NCCCC)=NP(NCCCC)(NCCCC)=NP(NCCCC)(NCCCC)=NP(NCCCC)(NCCCC)=N1`, the survivor count is, setting by setting: under setting [3], 0 of 6 on day 12; (dose: 1200.0 mg/kg/injection, schedule: Q04DX003 (ip), vehicle: saline with Tween-80) 0 of 6 on day 12.
With `COc1cccc2c1C(CO)N1C(C#N)C3CC(C(=O)O)C(C1C2)N3C` (centres undefined), the survivor count (dose: 60.0 mg/kg/injection, schedule: Q04DX003 (ip), vehicle: saline with Tween-80) is recorded as 3 of 6 on day 12 and the survivor count (dose: 120.0 mg/kg/injection, schedule: Q04DX003 (ip), vehicle: saline with Tween-80) is listed as 2 of 6 on day 12.
Regarding `COC(=O)C1(F)C(=O)NC(=O)NC1OC` (centres undefined), the T/C (dose: 200.0 mg/kg/injection, schedule: Q04DX003 (ip), vehicle: Klucel (hydroxypropylcellulose) (HPC)) is 139 % of control.
In the case of `NC(Cc1ccc(N(CCCl)Cc2ccccc2)cc1)C(=O)O` (centres undefined), the survivor count (dose: 400.0 mg/kg/injection, schedule: Q04DX003 (ip), vehicle: saline with Tween-80) is 1 of 6 on day 12.
On to `Nc1nc2n[nH]nc2c(=O)[nH]1`, for which the survivor count (dose: 600.0 mg/kg/injection, schedule: Q04DX003 (ip), vehicle: suspension in saline) was 2 of 6 on day 12.
For `NNC(=O)c1ccncc1`, under “dose: 300.0 mg/kg/injection, schedule: Q04DX003 (ip), vehicle: saline”, the survivor count is reported as 0 of 6 on day 12.
With `CC(O)CCC(=O)c1ccoc1` (centres undefined), the T/C is 125 % of control (dose: 13.5 mg/kg/injection, schedule: Q04DX003 (ip), vehicle: saline) and 130 % of control (dose: 18.0 mg/kg/injection, schedule: Q04DX003 (ip), vehicle: saline).
